Experimental findings from paper PMC11220067 are described below.

Chains of the proteins cited; added tags and fusions are not shown.
UniProt P08172: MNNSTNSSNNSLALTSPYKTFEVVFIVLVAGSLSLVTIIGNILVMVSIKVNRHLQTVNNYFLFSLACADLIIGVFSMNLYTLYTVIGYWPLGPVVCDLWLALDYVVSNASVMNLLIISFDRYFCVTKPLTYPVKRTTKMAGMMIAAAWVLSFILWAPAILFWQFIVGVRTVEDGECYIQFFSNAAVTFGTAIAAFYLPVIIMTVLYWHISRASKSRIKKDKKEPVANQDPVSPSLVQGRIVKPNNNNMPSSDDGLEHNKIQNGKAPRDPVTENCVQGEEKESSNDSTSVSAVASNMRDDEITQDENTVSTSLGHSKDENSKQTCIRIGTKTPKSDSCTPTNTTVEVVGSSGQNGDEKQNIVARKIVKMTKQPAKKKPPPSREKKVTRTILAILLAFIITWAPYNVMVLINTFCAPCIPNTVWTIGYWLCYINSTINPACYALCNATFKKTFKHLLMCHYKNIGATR
UniProt P08912: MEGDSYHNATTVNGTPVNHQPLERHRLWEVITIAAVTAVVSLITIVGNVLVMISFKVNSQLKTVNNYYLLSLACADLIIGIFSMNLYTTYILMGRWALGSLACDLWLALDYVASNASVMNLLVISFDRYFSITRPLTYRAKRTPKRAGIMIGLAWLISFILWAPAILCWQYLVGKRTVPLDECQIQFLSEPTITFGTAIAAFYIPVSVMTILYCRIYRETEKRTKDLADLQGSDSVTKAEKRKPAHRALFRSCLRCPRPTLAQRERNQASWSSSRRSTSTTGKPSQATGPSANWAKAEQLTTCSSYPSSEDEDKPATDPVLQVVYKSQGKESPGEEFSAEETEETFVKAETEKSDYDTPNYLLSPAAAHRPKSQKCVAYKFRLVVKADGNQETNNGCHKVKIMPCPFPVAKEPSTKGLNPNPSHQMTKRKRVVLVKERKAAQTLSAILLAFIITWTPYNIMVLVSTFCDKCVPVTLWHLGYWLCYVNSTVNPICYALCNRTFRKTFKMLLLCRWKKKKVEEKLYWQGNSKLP
UniProt P32120: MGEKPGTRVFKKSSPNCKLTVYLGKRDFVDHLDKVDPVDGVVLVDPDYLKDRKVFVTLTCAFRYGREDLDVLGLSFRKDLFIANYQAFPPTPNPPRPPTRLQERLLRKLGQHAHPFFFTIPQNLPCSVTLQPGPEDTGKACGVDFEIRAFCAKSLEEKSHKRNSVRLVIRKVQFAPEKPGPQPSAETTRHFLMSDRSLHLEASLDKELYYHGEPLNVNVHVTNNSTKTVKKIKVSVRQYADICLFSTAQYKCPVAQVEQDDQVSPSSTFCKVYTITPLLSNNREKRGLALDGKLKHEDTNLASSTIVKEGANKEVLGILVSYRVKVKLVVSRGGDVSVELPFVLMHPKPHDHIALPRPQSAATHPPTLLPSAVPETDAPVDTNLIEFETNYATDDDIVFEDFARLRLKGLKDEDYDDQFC

Results are given in words; binding and its absence hold for the method and conditions named. Binding seen in cells or lysates may run through a third protein. Some entries that bind do so weakly or less than the wild type.

Test [1] has as its target muscarinic M2 acetylcholine receptor-NanoLuciferase (human) (UniProt P08172). Briefly: FRET or BRET; intermolecular NanoBRET in living cells; GPCR-NLuc as donor, Halo-Tag-β-arrestin2 (Halo-ligand labelled) as acceptor; ΔQ-GRK HEK293 cells co-transfected with empty vector, GRK2 or GRK3 (WT, D110A, R587Q, D110A,R587Q) or their CAAX versions; for M5R also CRISPR/Cas9 HEK293 control cells with endogenous GRKs, with or without bARK-CT (0.5 or 1 µg) or 300 nM FR900359; stimulated with isoproterenol (b2AR) or acetylcholine (M2R, M5R); measuring buffer 140 mM NaCl, 10 mM HEPES, 5.4 mM KCl, 2 mM CaCl2, 1 mM MgCl2, pH 7.3. (In general: BRET reads energy transfer from a luciferase to a nearby fluorophore.)

The target of test [2] is muscarinic M5 acetylcholine receptor-NanoLuciferase (human) (UniProt P08912). The description is as above.

“Halo-Tag-β-arrestin2 (from UniProt P32120 1-420)”: the binding entry in test [1] and in test [2] was “binds” throughout.
